Consider two molecules from publication PMC10620819.

No constants are given. Whether binding was seen depends on the method and setting. Binding seen in cells or lysates may run through a third protein. Some binding calls cover weakened binding; strength is not graded here. Where a sequence is shown, tags or fusion partners need not be part of it.

In experiment [1] the target is T1, Flotillin-1 (FLOT1), HA-tagged (UniProt O75955).
T1 sequence: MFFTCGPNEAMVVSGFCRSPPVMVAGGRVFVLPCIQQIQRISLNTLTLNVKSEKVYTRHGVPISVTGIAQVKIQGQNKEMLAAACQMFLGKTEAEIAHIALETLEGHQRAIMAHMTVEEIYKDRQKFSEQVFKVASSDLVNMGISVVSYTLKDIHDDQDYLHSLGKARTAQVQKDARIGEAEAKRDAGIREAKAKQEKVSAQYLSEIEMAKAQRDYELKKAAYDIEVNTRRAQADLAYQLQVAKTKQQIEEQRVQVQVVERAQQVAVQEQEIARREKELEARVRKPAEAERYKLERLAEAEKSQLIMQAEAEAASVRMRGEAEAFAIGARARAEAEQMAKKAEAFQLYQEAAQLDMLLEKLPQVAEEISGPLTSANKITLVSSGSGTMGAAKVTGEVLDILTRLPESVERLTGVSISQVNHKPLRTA
Nature of the experiment: co-IP; whole lysates of AGS or HGC-27 cells; antibodies against HA tag or DYKDDDDK tag or IgG control at 4 °C overnight; Protein A/G PLUS agarose; PBST washes; western blotting.

In experiment [2] the target is T2, Breast Cancer Antiestrogen Resistance 1 (BCAR1), Flag-tagged (UniProt P56945).
T2 sequence: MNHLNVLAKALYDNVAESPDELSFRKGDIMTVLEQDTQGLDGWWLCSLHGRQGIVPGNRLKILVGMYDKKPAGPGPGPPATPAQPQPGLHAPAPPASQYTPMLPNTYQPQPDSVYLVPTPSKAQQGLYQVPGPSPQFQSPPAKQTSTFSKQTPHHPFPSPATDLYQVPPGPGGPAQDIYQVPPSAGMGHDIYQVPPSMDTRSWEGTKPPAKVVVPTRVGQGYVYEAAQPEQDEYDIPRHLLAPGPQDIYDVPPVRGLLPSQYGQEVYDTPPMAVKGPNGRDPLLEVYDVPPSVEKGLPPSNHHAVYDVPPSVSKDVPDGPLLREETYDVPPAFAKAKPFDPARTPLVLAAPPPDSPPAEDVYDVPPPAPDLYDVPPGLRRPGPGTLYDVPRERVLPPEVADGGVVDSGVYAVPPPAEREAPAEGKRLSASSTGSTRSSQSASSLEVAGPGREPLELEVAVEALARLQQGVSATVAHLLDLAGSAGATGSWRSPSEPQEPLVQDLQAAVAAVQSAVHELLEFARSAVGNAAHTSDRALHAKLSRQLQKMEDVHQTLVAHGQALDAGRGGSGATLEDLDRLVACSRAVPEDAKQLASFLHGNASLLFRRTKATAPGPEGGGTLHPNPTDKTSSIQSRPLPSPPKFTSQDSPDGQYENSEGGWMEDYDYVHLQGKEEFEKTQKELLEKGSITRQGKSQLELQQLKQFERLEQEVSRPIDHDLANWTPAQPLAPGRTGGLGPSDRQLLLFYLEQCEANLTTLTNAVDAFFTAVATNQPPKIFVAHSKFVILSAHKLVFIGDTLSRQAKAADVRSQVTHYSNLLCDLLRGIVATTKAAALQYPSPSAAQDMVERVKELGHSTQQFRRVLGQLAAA
The description is as above.

B1: Breast Cancer Antiestrogen Resistance 1 (BCAR1), Flag-tagged (protein, UniProt P56945 1-870)
chain: MNHLNVLAKALYDNVAESPDELSFRKGDIMTVLEQDTQGLDGWWLCSLHGRQGIVPGNRLKILVGMYDKKPAGPGPGPPATPAQPQPGLHAPAPPASQYTPMLPNTYQPQPDSVYLVPTPSKAQQGLYQVPGPSPQFQSPPAKQTSTFSKQTPHHPFPSPATDLYQVPPGPGGPAQDIYQVPPSAGMGHDIYQVPPSMDTRSWEGTKPPAKVVVPTRVGQGYVYEAAQPEQDEYDIPRHLLAPGPQDIYDVPPVRGLLPSQYGQEVYDTPPMAVKGPNGRDPLLEVYDVPPSVEKGLPPSNHHAVYDVPPSVSKDVPDGPLLREETYDVPPAFAKAKPFDPARTPLVLAAPPPDSPPAEDVYDVPPPAPDLYDVPPGLRRPGPGTLYDVPRERVLPPEVADGGVVDSGVYAVPPPAEREAPAEGKRLSASSTGSTRSSQSASSLEVAGPGREPLELEVAVEALARLQQGVSATVAHLLDLAGSAGATGSWRSPSEPQEPLVQDLQAAVAAVQSAVHELLEFARSAVGNAAHTSDRALHAKLSRQLQKMEDVHQTLVAHGQALDAGRGGSGATLEDLDRLVACSRAVPEDAKQLASFLHGNASLLFRRTKATAPGPEGGGTLHPNPTDKTSSIQSRPLPSPPKFTSQDSPDGQYENSEGGWMEDYDYVHLQGKEEFEKTQKELLEKGSITRQGKSQLELQQLKQFERLEQEVSRPIDHDLANWTPAQPLAPGRTGGLGPSDRQLLLFYLEQCEANLTTLTNAVDAFFTAVATNQPPKIFVAHSKFVILSAHKLVFIGDTLSRQAKAADVRSQVTHYSNLLCDLLRGIVATTKAAALQYPSPSAAQDMVERVKELGHSTQQFRRVLGQLAAA
On to B1, for which, in experiment [1], the binding entry is on record as “binds”.

B2: Flotillin-1 (FLOT1), HA-tagged (protein, UniProt O75955 1-427)
chain: MFFTCGPNEAMVVSGFCRSPPVMVAGGRVFVLPCIQQIQRISLNTLTLNVKSEKVYTRHGVPISVTGIAQVKIQGQNKEMLAAACQMFLGKTEAEIAHIALETLEGHQRAIMAHMTVEEIYKDRQKFSEQVFKVASSDLVNMGISVVSYTLKDIHDDQDYLHSLGKARTAQVQKDARIGEAEAKRDAGIREAKAKQEKVSAQYLSEIEMAKAQRDYELKKAAYDIEVNTRRAQADLAYQLQVAKTKQQIEEQRVQVQVVERAQQVAVQEQEIARREKELEARVRKPAEAERYKLERLAEAEKSQLIMQAEAEAASVRMRGEAEAFAIGARARAEAEQMAKKAEAFQLYQEAAQLDMLLEKLPQVAEEISGPLTSANKITLVSSGSGTMGAAKVTGEVLDILTRLPESVERLTGVSISQVNHKPLRTA
For the molecule B2, in experiment [2], the binding result is “binds”.
